Some of the results follow.

Amino acid sequences for entries named in this document (tags omitted). A change or cut given only in a name is not applied to a line headed by its entry.
UniProt P51798: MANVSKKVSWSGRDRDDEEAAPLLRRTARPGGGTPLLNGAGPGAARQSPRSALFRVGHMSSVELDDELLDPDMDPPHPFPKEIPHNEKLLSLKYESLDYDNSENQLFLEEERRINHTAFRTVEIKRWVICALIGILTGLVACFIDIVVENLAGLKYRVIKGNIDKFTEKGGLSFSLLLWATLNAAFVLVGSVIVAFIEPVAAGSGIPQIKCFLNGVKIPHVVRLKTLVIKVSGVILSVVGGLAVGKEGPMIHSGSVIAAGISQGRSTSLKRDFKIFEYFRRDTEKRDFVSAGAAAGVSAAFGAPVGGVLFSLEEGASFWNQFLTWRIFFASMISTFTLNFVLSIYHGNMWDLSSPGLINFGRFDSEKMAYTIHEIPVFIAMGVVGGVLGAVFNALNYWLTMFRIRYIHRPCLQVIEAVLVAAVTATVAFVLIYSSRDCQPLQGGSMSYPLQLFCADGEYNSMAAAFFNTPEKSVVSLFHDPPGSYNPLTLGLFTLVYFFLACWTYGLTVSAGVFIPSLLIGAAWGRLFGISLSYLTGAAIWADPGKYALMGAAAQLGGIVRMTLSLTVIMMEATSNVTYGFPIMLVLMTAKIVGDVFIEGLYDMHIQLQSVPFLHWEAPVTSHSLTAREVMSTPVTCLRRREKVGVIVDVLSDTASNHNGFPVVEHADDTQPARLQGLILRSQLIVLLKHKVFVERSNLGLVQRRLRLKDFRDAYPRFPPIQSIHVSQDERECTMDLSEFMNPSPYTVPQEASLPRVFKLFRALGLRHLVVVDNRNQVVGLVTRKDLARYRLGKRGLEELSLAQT
UniProt O95628: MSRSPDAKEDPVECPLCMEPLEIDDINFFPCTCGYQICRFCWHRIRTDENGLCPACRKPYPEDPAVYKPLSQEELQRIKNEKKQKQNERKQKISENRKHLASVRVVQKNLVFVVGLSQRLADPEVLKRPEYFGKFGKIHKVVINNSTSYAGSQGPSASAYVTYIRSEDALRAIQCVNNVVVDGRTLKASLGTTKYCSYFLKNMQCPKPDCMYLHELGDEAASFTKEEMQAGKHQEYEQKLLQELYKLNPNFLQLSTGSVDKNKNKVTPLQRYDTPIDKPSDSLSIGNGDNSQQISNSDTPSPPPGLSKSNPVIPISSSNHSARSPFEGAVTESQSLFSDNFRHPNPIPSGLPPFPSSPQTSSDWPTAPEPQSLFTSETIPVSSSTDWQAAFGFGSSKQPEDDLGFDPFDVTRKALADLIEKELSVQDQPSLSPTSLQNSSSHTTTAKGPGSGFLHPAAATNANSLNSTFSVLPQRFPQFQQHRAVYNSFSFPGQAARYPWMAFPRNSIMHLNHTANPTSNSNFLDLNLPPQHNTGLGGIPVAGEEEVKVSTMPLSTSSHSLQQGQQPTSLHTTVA
UniProt Q9Y696: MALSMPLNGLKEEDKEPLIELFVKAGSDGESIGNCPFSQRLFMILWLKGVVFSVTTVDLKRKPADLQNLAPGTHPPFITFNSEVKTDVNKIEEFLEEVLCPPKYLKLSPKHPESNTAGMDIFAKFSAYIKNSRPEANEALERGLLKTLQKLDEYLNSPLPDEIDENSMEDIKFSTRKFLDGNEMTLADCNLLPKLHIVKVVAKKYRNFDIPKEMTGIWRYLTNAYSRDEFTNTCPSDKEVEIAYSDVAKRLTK
UniProt O75175, whole entry, looked up: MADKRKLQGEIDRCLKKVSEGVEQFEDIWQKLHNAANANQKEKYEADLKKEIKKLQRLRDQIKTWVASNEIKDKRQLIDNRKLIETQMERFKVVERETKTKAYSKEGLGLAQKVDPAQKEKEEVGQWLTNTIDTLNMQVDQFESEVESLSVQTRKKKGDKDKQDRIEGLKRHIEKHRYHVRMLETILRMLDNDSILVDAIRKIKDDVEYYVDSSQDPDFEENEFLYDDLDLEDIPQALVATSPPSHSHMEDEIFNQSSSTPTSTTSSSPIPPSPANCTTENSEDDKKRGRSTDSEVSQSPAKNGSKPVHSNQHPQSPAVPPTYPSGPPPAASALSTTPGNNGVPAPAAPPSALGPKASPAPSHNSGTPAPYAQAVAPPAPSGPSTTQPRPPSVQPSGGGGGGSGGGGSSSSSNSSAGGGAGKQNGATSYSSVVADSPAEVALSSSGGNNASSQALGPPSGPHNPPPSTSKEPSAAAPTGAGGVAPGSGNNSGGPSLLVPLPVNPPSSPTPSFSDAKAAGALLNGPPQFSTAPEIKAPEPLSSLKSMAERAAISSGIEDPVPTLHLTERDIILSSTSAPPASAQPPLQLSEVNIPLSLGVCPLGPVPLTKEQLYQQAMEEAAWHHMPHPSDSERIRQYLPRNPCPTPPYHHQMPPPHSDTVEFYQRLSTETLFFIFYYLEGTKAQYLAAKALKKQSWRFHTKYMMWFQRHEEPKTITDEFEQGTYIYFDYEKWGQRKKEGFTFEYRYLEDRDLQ
UniProt Q92600, whole entry, looked up: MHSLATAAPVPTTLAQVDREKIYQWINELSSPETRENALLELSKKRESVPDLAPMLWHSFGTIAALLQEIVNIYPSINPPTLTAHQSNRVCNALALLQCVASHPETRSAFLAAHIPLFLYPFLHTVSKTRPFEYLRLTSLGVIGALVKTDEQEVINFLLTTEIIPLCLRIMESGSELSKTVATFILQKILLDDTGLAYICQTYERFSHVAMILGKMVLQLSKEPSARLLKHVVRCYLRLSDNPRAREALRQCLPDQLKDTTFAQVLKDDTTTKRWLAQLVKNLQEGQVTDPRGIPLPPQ
UniProt Q9H078: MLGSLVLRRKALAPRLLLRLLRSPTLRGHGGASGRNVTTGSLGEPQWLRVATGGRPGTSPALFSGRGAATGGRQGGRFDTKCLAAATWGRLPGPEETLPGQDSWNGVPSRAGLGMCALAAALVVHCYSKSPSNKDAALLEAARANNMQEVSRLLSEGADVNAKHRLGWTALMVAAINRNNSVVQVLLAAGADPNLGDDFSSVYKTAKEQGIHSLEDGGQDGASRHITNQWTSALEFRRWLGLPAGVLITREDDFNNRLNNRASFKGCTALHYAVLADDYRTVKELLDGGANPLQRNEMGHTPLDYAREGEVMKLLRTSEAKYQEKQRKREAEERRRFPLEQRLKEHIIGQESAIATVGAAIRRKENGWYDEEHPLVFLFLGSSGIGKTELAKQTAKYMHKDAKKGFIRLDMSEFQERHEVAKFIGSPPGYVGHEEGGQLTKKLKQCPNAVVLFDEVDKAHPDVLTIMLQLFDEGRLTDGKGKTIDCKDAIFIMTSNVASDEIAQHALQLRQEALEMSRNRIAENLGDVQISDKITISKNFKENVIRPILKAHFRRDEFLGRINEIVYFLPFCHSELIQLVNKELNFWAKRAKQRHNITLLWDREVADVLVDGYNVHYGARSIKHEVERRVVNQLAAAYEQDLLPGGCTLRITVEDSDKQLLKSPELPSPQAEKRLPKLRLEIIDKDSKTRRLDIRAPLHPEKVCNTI
UniProt P09497: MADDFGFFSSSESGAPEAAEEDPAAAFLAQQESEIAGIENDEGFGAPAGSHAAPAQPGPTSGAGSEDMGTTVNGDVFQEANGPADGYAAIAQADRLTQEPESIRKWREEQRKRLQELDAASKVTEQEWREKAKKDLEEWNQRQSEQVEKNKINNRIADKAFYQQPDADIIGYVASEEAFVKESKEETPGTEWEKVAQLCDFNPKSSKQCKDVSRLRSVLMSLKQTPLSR
UniProt Q99653: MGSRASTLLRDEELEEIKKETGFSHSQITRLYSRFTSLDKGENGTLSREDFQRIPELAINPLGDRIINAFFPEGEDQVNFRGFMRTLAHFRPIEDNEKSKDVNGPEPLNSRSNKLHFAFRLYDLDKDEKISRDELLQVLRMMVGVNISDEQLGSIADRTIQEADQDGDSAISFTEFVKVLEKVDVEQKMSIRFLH
UniProt Q8NE01: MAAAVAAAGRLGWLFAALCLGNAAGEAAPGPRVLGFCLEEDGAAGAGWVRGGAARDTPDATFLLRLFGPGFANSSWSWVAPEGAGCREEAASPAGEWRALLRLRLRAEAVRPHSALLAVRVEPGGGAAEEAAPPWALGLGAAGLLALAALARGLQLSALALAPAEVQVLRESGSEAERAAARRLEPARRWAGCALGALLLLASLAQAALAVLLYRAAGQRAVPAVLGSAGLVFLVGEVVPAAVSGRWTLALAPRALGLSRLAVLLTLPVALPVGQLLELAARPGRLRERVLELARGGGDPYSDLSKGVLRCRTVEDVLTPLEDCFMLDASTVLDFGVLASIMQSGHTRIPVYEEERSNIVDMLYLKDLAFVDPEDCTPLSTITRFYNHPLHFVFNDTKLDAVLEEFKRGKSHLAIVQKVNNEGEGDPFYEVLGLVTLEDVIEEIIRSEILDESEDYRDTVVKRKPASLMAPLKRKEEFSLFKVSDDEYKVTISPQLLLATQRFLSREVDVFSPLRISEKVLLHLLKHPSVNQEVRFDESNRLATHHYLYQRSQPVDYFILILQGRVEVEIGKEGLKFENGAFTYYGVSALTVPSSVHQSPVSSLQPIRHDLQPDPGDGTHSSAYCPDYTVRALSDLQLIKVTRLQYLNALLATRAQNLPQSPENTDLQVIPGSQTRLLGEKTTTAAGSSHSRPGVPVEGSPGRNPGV
UniProt Q16740, whole entry, looked up: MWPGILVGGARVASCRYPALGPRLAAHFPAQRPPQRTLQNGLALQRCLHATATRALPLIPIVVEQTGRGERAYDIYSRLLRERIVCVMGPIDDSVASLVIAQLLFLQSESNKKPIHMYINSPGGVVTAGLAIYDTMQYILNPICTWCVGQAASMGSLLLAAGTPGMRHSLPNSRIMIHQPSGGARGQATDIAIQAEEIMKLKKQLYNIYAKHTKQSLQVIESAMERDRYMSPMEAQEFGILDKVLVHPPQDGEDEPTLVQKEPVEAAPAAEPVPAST
UniProt Q9UFF9, whole entry, looked up: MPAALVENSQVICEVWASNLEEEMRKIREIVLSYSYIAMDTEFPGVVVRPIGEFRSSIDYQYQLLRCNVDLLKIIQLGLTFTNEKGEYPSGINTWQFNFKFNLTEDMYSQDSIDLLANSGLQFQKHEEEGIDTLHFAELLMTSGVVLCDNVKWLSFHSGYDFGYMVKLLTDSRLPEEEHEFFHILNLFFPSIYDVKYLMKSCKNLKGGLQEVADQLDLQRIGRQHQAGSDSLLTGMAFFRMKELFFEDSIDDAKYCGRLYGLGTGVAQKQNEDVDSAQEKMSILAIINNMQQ
UniProt Q5JTJ3: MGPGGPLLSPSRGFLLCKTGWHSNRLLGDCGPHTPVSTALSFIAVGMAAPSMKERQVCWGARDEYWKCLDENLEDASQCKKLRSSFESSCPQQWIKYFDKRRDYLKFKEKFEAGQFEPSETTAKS
UniProt O75122: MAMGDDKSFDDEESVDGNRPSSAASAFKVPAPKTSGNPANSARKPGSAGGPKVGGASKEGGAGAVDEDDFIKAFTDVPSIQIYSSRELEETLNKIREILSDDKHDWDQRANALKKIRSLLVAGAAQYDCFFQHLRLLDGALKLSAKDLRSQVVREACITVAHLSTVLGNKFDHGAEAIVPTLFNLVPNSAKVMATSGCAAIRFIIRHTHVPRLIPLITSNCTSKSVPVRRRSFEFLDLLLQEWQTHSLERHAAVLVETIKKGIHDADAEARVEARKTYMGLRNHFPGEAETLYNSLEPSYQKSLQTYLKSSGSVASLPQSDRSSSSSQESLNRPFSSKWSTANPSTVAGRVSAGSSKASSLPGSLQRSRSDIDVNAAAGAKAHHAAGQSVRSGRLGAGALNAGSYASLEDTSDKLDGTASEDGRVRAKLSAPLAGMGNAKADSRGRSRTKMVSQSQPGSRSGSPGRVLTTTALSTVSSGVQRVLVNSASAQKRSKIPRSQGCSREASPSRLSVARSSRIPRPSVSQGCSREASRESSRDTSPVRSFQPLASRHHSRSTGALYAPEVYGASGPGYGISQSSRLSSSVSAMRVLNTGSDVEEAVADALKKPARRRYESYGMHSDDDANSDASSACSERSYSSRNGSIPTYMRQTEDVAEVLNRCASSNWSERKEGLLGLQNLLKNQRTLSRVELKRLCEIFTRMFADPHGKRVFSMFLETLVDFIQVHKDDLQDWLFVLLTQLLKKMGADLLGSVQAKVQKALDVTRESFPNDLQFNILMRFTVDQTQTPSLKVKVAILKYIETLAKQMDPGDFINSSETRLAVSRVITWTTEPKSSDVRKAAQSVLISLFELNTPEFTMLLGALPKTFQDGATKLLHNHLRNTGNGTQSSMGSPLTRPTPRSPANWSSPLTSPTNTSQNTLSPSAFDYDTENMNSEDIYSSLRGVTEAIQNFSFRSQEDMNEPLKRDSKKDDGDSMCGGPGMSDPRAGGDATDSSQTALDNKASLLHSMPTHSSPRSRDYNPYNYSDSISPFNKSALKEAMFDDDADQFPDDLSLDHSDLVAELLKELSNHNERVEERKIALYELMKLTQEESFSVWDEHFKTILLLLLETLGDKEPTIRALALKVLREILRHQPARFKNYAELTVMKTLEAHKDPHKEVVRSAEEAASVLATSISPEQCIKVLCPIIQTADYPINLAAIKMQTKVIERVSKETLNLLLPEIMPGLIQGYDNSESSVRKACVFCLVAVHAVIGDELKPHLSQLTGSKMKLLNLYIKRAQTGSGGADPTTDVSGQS

For 15 targets, log2 fold change results are on record in the supplement of paper PMC10849652.

What all share (test): log2 fold change, soluble protein after heating vs DMSO (PISA); higher = thermal stabilisation; K562 cells, 10 uM, 30 min; active = over 0.2 and 3.5 SD of the protein, either way, in both replicates (recomputed)
Compound in assay [1]: CC1=C(C=C(C=C1)NC(=O)C2=CC(=CC=C2)C(C)(C)C#N)NC3=CC4=C(C=C3)N=CN(C4=O)C
Summed up:
(§1)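 Aliquots of K562 cells (2×10^6 cells/mL) treated with 10 μM compound for 30 min were heated for 3 min over 48°C-58°C. After pooling and extraction in PBS with 0.5% NP-40 at 4°C, soluble protein from a 21,000xg, 90 min spin was quantified by TMTpro 16plex LC-MS/MS with channel sums equalised. Thermal stability is expressed against control samples, from duplicates, as a log2 fold change.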

Compound in assay [2]: CC1=C(C=C(C=C1)NC(=O)C2=CC(=CC=C2)N(C)C)NC(=O)C3=CC=C(C=C3)O
In outline: as §1

Compound in assay [3]: CC1=CC=C(C=C1)SC2=C3C=C(SC3=CN=C2)C(=O)N
Summed up:
as §1

Compound in assay [4]: CC1=NC(=CC=C1)C2=C(N=C(N2)C(C)(C)C)C3=CC4=NC=CN=C4C=C3
Summed up: as §1

Compound in the next assay: CCCCN(Cc1ccc(C(=O)NO)cc1)C(=O)Nc1ccccc1 [Nexturastat A]
In outline: as §1

Compound in the next assay: CCCS(=O)(=O)Nc1ccc(F)c(C(=O)c2c[nH]c3ncc(-c4ccc(Cl)cc4)cc23)c1F [vemurafenib]
Summed up: as §1

Compound in assay [5]: CCCS(=O)(=O)Nc1ccc(F)c(C(=O)c2c[nH]c3ncc(Cl)cc23)c1F
In outline:
as §1

Compound in assay [6]: CCCc1cc(C)[nH]c(=O)c1CNC(=O)c1cc(-c2ccnc(N3CCN(C)CC3)c2)cc2c1cnn2C(C)C
Summed up: as §1

Compound in a further assay: CCN(CC)Cc1ccc2cc(COC(=O)Nc3ccc(C(=O)NO)cc3)ccc2c1 [givinostat]
In outline: as §1

Compound in another assay: CCN(CCCOc1ccc2c(Nc3cc(CC(=O)Nc4cccc(F)c4)[nH]n3)ncnc2c1)CCOP(=O)(O)O [barasertib]
In outline:
as §1

For the target CLCN7 (UniProt P51798), the log2 fold change in assay [1] was inactive: 0.027; in [2], inactive: -0.026; in assay [3], inactive: 0.029; in assay [4] it was inactive: 0.006; with Nexturastat A, inactive: -0.07; in the assay with vemurafenib it was inactive: 0.001. The log2 fold change was inactive: 0.038 in [5], inactive: -0.068 in assay [6], inactive: -0.007 with givinostat and inactive: -0.015 in the assay with barasertib.

For the target CNOT4 isoform 6 (UniProt O95628), the log2 fold change in assay [1] was inactive: -0.056; in [2], inactive: -0.012; in assay [3], inactive: 0.005; in assay [4], inactive: 0.023; in the assay with Nexturastat A, inactive: -0.122; with vemurafenib it was inactive: -0.014. For the same target, the log2 fold change in [5] is inactive: -0.007; in assay [6], inactive: -0.069; with givinostat it was inactive: -0.064; in the assay with barasertib, inactive: 0.007.

On to CLIC4 (UniProt Q9Y696), for which the log2 fold change in [1] was inactive: -0.012; in [2], inactive: -0.034; in [3], inactive: -0.01; in [4] it was inactive: 0.014; in the assay with Nexturastat A, inactive: -0.05; with vemurafenib it was inactive: -0.01. The log2 fold change in assay [5] was inactive: -0.001; in assay [6] it was inactive: -0.076; with givinostat, inactive: 0.012; in the assay with barasertib, inactive: 0.02.

As for CNOT3 (UniProt O75175), the log2 fold change in assay [1] is inactive: -0.041; in assay [2] it was inactive: 0.003; in assay [3] it was inactive: -0.022; in assay [4] it was inactive: 0.04; in the assay with Nexturastat A, inactive: 0.003; with vemurafenib it was inactive: 0.033. The log2 fold change in [5] is inactive: 0.08; in [6], inactive: 0.032; in the assay with givinostat, inactive: 0.049; with barasertib, inactive: 0.069.

Turning to CNOT9 isoform 2 (UniProt Q92600), the log2 fold change in assay [1] was inactive: -0.099; in assay [2], inactive: -0.014; in assay [3] it was inactive: 0.065; in assay [4], inactive: 0.027; with Nexturastat A, inactive: 0.086; in the assay with vemurafenib it was inactive: 0.042. Further, the log2 fold change in [5] is inactive: 0.05; in assay [6], inactive: 0.026; in the assay with givinostat, inactive: 0.043; in the assay with barasertib, inactive: 0.04.

Turning to CLPB isoform 2 (UniProt Q9H078), the log2 fold change in [1] was inactive: -0.009; in assay [2], inactive: -0.015; in assay [3], inactive: 0.019; in [4], inactive: -0.005; with Nexturastat A it was inactive: -0.018; with vemurafenib it was inactive: 0.053. For the same target, the log2 fold change was inactive: 0.035 in [5], inactive: -0.031 in assay [6], inactive: 0.031 in the assay with givinostat and inactive: 0.004 in the assay with barasertib.

CLTB (UniProt P09497): the log2 fold change in [1] is inactive: -0.003; in [2] it was inactive: -0.025; in assay [3] it was inactive: -0.007; in [4] it was inactive: 0.037; with Nexturastat A, inactive: -0.039; with vemurafenib, inactive: -0.009. Also, the log2 fold change was inactive: -0.012 in assay [5], inactive: -0.036 in [6], inactive: 0.047 in the assay with givinostat and inactive: -0.023 with barasertib.

For CHP1 (UniProt Q99653), the log2 fold change in assay [1] was inactive: -0.048; in assay [2] it was inactive: -0.016; in [3], inactive: -0.112; in [4], inactive: 0.021; with Nexturastat A, inactive: 0.016; with vemurafenib, inactive: 0.141. For the same target, the log2 fold change is inactive: -0.042 in assay [5], inactive: 0.008 in assay [6], inactive: -0.035 with givinostat and inactive: 0.009 with barasertib.

For the target CNNM3 (UniProt Q8NE01), the log2 fold change in assay [1] is inactive: -0.028; in [2] it was inactive: 0.007; in assay [3], inactive: 0.042; in assay [4] it was inactive: 0.058; with Nexturastat A it was inactive: -0.006; in the assay with vemurafenib, inactive: -0.014. For the same target, the log2 fold change in assay [5] is inactive: 0.078; in assay [6], inactive: 0.057; with givinostat, inactive: 0.004; with barasertib it was inactive: 0.022.

As to CLIP1 isoform 1 (UniProt P30622), the log2 fold change in assay [1] was inactive: -0.004; in assay [2], inactive: -0.01; in [3], inactive: -0.015; in [4], inactive: -0.013; in the assay with Nexturastat A, inactive: -0.078; with vemurafenib it was inactive: 0.017. Besides, the log2 fold change in assay [5] was inactive: -0.02; in [6], inactive: 0.001; with givinostat, inactive: -0.015; in the assay with barasertib, inactive: 0.

Regarding CLPP (UniProt Q16740), the log2 fold change in [1] was inactive: -0.002; in [2], inactive: -0.004; in assay [3], inactive: -0.003; in [4], inactive: 0.007; in the assay with Nexturastat A it was inactive: 0.041; with vemurafenib it was inactive: 0.015. Besides, the log2 fold change is inactive: 0.008 in assay [5], inactive: 0.023 in assay [6], inactive: 0.003 with givinostat and inactive: 0.001 with barasertib.

For CLCN3 isoform 2 (UniProt P51790), the log2 fold change is inactive: -0.055 in assay [1]; inactive: 0.002 in assay [2]; inactive: 0.008 in assay [3]; inactive: 0.061 in [4]; inactive: -0.026 with Nexturastat A; inactive: 0 with vemurafenib. The log2 fold change in assay [5] was inactive: 0.03; in assay [6], inactive: -0.023; in the assay with givinostat, inactive: 0.029; with barasertib, inactive: -0.006.

For the target CNOT8 (UniProt Q9UFF9), the log2 fold change was inactive: 0.022 in assay [1]; inactive: 0 in assay [2]; inactive: -0.013 in assay [3]; inactive: -0.009 in assay [4]; inactive: 0.116 with Nexturastat A; inactive: 0.123 with vemurafenib. Besides, the log2 fold change is inactive: 0.034 in assay [5], inactive: -0.292 in assay [6], inactive: -0.018 in the assay with givinostat and inactive: -0.105 in the assay with barasertib.

Regarding COA6 isoform 2 (UniProt Q5JTJ3), the log2 fold change in [1] is inactive: -0.054; in assay [2] it was inactive: -0.012; in [3], active: 0.767; in assay [4], inactive: 0.036; with Nexturastat A it was inactive: 0.007; in the assay with vemurafenib it was inactive: -0.041. Moreover, the log2 fold change in assay [5] was inactive: -0.009; in assay [6], inactive: -0.089; with givinostat, inactive: -0.02; with barasertib, inactive: -0.042.

For CLASP2 isoform 3 (UniProt O75122), the log2 fold change in assay [1] was inactive: -0.032; in assay [2] it was inactive: -0.01; in assay [3], inactive: 0.013; in assay [4] it was inactive: 0.012; with Nexturastat A, inactive: -0.006; in the assay with vemurafenib, inactive: 0.089. For the same target, the log2 fold change in assay [5] is inactive: 0.061; in [6] it was inactive: 0.029; with givinostat it was inactive: 0.013; with barasertib it was inactive: 0.066.
